Measured values as given in PubChem BioAssay (NCATS).
The shares of active, inactive and inconclusive entries below differ from those in the screen. Potencies beside an inconclusive call are fits to weak or partial responses and may not hold up. Calls of active or inactive are those of the source. The call rests on the fitted dose curve; in most records, active means well fitted curve in the direction sought with a large enough effect; inconclusive means small, poorly fitted or top-dose-only effect, or another doubt; inactive means no such curve, though single readings can be large; an effect the other way counts as inactive or inconclusive.

Assays:
[1] = Quantitative High-Throughput drug screen in 47 multiple myeloma cell lines against the NCATS MIPE library collection: FR4_PLB cell viability assay (AID 1918924; further: nearly all actives have a fitted effect of over 35% in size)
In short: (§1)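 Myeloma cells (500 per well) were exposed to MIPE 4.0 compounds by pin transfer and incubated 48 hours at 37C, 5% CO2. Viability was read as ATP by CellTiter-Glo luminescence, normalised to DMSO (100%) and media-only (0%) wells.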

[2] = Quantitative High-Throughput drug screen in 47 multiple myeloma cell lines against the NCATS MIPE library collection: Delta47_JCRB cell viability assay (AID 1918925; further: nearly all actives have a fitted effect of over 45% in size); conditions: Delta47 myeloma viability, CellTiter-Glo ATP, 48 h; viability (% of DMSO): at 45.8 µM (top of the series)
In short: (§2)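 CellTiter-Glo ATP luminescence gave viability after 48 h compound treatment at 37C of 500 multiple myeloma cells per well. Normalisation used DMSO-only wells as 100% and media-only wells as 0% viability; primary qHTS of approved and investigational drugs.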

[3] = Quantitative High-Throughput drug screen in 47 multiple myeloma cell lines against the NCATS MIPE library collection: EJM_DSMZ cell viability assay (AID 1918926; further: nearly all actives have a fitted effect of over 30% in size)
In short: as §2

[4] = Quantitative High-Throughput drug screen in 47 multiple myeloma cell lines against the NCATS MIPE library collection: AMO1_DSMZ cell viability assay (AID 1918927; further: nearly all actives have a fitted effect of over 30% in size)
In short: as §2

[5] = Quantitative High-Throughput drug screen in 47 multiple myeloma cell lines against the NCATS MIPE library collection: ARP1_JJKsccF8 cell viability assay (AID 1918928; further: nearly all actives have a fitted effect of over 40% in size)
In short: (§3)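 Viability screen: myeloma cells (500/well) incubated 48 h at 37 °C, humidified 5% CO2, with pinned library compounds; CellTiter-Glo added, luminescence read; DMSO wells set 100%, medium-only wells 0%.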

[6] = Quantitative High-Throughput drug screen in 47 multiple myeloma cell lines against the NCATS MIPE library collection: ARD_JJKsccE7 cell viability assay (AID 1918929); conditions: ARD myeloma cell line viability, CellTiter-Glo, 48 h; viability: at 45.8 µM (top of the series)
In short: as §2

[7] = Quantitative High-Throughput drug screen in 47 multiple myeloma cell lines against the NCATS MIPE library collection: Karpas620_DSMZ cell viability assay (AID 1918959); conditions: Karpas620 myeloma viability, CellTiter-Glo ATP luminescence, 48 h; viability (% of DMSO): at 45.8 µM (top of the series); further: nearly all actives have a fitted effect of over 30% in size
In short: as §1

[8] = Quantitative High-Throughput drug screen in 47 multiple myeloma cell lines against the NCATS MIPE library collection: KMM1_JCRB cell viability assay (AID 1918960); conditions: KMM1 myeloma viability, CellTiter-Glo ATP luminescence, 48 h; viability (% of DMSO): at 45.8 µM (top of the series); further: nearly all actives have a fitted effect of over 30% in size
In short: as §3

[9] = Quantitative High-Throughput drug screen in 47 multiple myeloma cell lines against the NCATS MIPE library collection: Karpas417_ECACC cell viability assay (AID 1918961); conditions: Karpas417 myeloma viability, CellTiter-Glo ATP luminescence, 48 h; viability (% of DMSO): at 45.8 µM (top of the series)
In short: as §2

[10] = Quantitative High-Throughput drug screen in 47 multiple myeloma cell lines against the NCATS MIPE library collection: KHM11_PLB cell viability assay (AID 1918962); conditions: KHM11 myeloma cell viability, CellTiter-Glo ATP luminescence, 48 h; viability, % of DMSO control: at 45.8 µM (top of the series); further: nearly all actives have a fitted effect of over 35% in size
In short: as §1

[11] = Quantitative High-Throughput drug screen in 47 multiple myeloma cell lines against the NCATS MIPE library collection: JJN3_DSMZ cell viability assay (AID 1918966; further: nearly all actives have a fitted effect of over 50% in size); conditions: JJN3 myeloma cells viability, CellTiter-Glo ATP, 48 h; viability, % of DMSO: at 45.8 µM (top of the series)
In short: as §2

[12] = Quantitative High-Throughput drug screen in 47 multiple myeloma cell lines against the NCATS MIPE library collection: H1112_PLB cell viability assay (AID 1918967; further: nearly all actives have a fitted effect of over 30% in size)
In short: as §2

[13] = Quantitative High-Throughput drug screen in 47 multiple myeloma cell lines against the NCATS MIPE library collection: Karpas25_ECACC cell viability assay (AID 1918968; further: nearly all actives have a fitted effect of over 35% in size); conditions: Karpas25 myeloma viability, CellTiter-Glo ATP, 48 h; viability (% of control): at 45.8 µM (top of the series)
In short: as §2

[14] = Quantitative High-Throughput drug screen in 47 multiple myeloma cell lines against the NCATS MIPE library collection: JIM1_ECACC cell viability assay (AID 1918964); conditions: JIM1 myeloma viability, CellTiter-Glo ATP luminescence, 48 h; viability (% of DMSO): at 45.8 µM (top of the series)
In short: as §2

[15] = Primary redox qHTS assay for identification of artifact compounds. (AID 1845223)
In short: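 Redox-cycling detection via DTT (250 uM final) oxidation coupled to Amplex Red (25 uM)/HRP (250 mU/mL) in HBSS. 15 min preincubation plus 30 min after DTT, room temperature. Ex/Em 525/598 nm; 4-parameter Hill fit against DMSO and 10 uM DA3003.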

[16] = Quantitative High-Throughput drug screen in 47 multiple myeloma cell lines against the NCATS MIPE library collection: INA6_PLB cell viability assay (AID 1918965; further: nearly all actives have a fitted effect of over 55% in size); conditions: INA6 myeloma viability, CellTiter-Glo ATP luminescence, 48 h; viability (% of control): at 45.8 µM (top of the series)
In short: as §2

[17] = Quantitative High-Throughput drug screen in 47 multiple myeloma cell lines against the NCATS MIPE library collection: KMS27_JCRB cell viability assay (AID 1918970); conditions: KMS27 myeloma cells, CellTiter-Glo ATP viability, 48 h; viability (% of DMSO): at 45.8 µM (top of the series); further: nearly all actives have a fitted effect of over 30% in size
In short: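 Viability inhibition screen, 48 h compound exposure, luminescent ATP read-out.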

[18] = Quantitative High-Throughput drug screen in 47 multiple myeloma cell lines against the NCATS MIPE library collection: JIM3_ECACC cell viability assay (AID 1918963; further: nearly all actives have a fitted effect of over 35% in size)
In short: as §1
Potency means the concentration at half of the fitted maximal effect.

| Compound | Potency [1] | Potency [2] | Potency [3] | Potency [4] | Potency [5] | Potency [6] | Potency [7] | Potency [8] | Potency [9] | Potency [10] | Potency [11] | Potency [12] | Potency [13] | Potency [14] | Potency [15] | Potency [16] | Potency [17] | Potency [18] | viability, % of DMSO [11] |
| --- | --- | --- | --- | --- | --- | --- | --- | --- | --- | --- | --- | --- | --- | --- | --- | --- | --- | --- | --- |
| NC(=O)c1cccc2[nH]c(-c3ccc([C@H]4CCCN4)cc3F)nc12 | inactive | inconclusive: 14.8 µM [cytotoxic, partial curve, poor fit] | inactive | inconclusive: 16.6 µM [cytotoxic, partial curve] | inconclusive: 33.2 µM [cytotoxic, partial curve, poor fit] | inconclusive: 9.35 µM [cytotoxic, partial curve, poor fit] | inconclusive: 26.4 µM [cytotoxic, single point] | inconclusive: 23.5 µM [cytotoxic, partial curve] | inconclusive: 37.2 µM [cytotoxic, partial curve, poor fit] | inconclusive: 18.7 µM [cytotoxic, partial curve] | inconclusive: 37.2 µM [cytotoxic, single point] | inconclusive: 18.7 µM [cytotoxic, partial curve] | inconclusive: 26.4 µM [cytotoxic, single point] | – | – | – | – | – | – |
| C[C@@H](O[C@H]1OCCN(Cc2n[nH]c(=O)[nH]2)[C@@H]1c1ccc(F)cc1)c1cc(C(F)(F)F)cc(C(F)(F)F)c1 | active: 29.6 µM | inconclusive: 37.2 µM [cytotoxic, partial curve, poor fit] | inconclusive: 20.9 µM [cytotoxic, partial curve] | – | active: 26.4 µM | inactive | – | inconclusive: 7.43 µM [cytotoxic, single point] | inconclusive: 8.33 µM [rising, partial curve, poor fit] | inconclusive: 37.2 µM [cytotoxic, single point] | inconclusive: 20.9 µM [cytotoxic, partial curve, poor fit] | inconclusive: 20.9 µM [cytotoxic, partial curve] | inconclusive: 33.2 µM [cytotoxic, partial curve, poor fit] | inconclusive: 0.296 µM [cytotoxic, full curve, poor fit] | – | – | – | – | – |
| C[N+]1(C)[C@@H]2C[C@@H](OC(=O)C(O)(c3cccs3)c3cccs3)C[C@H]1[C@@H]1O[C@@H]12 | inactive | – | – | – | inconclusive: 0.0526 µM [rising, full curve, poor fit] | inactive | inactive | – | inconclusive: 0.935 µM [cytotoxic, full curve, poor fit] | inconclusive: 4.18 µM [rising, full curve, poor fit] | inactive | – | inactive | inconclusive: 0.0469 µM [rising, full curve, poor fit] | inactive | inactive | inactive | – | – |
| Cc1ccc(NC(=O)c2ccc(CN3CCN(C)CC3)cc2)cc1Nc1nccc(-c2cccnc2)n1 | inconclusive: 37.2 µM [cytotoxic, single point] | active: 20.9 µM | inconclusive: 74.3 µM [cytotoxic, partial curve, poor fit] | inconclusive: 37.2 µM [cytotoxic, single point] | – | inconclusive: 33.2 µM [cytotoxic, single point] | inconclusive: 33.2 µM [cytotoxic, single point] | inconclusive: 18.7 µM [cytotoxic, partial curve] | inconclusive: 23.5 µM [cytotoxic, partial curve, poor fit] | inconclusive: 33.2 µM [cytotoxic, single point] | inconclusive: 26.4 µM [cytotoxic, single point] | – | – | inconclusive: 16.6 µM [cytotoxic, partial curve, poor fit] | – | – | inconclusive: 37.2 µM [cytotoxic, single point] | inconclusive: 37.2 µM [cytotoxic, single point] | – |
| O=c1cc(-c2ccccc2)oc2cc(O)c(O)c(O)c12 | inconclusive: 37.2 µM [cytotoxic, single point] | inconclusive: 26.4 µM [cytotoxic, single point] | inactive | inconclusive: 0.418 µM [cytotoxic, full curve, poor fit] | inconclusive: 13.2 µM [cytotoxic, partial curve, poor fit] | inactive | inactive | – | inconclusive: 37.2 µM [rising, partial curve, poor fit] | inconclusive: 13.2 µM [cytotoxic, partial curve, poor fit] | inconclusive: 20.9 µM [cytotoxic, partial curve, poor fit] | active: 20.9 µM | – | – | – | inconclusive: 23.5 µM [cytotoxic, partial curve, poor fit] | inconclusive: 0.0019 µM [cytotoxic, full curve, poor fit] | inconclusive: 16.6 µM [cytotoxic, partial curve] | – |
| c1ccc2[nH]c(-c3cscn3)nc2c1 | inconclusive: 0.0033 µM [rising, full curve, poor fit] | inactive | inconclusive: 20.9 µM [cytotoxic, partial curve] | – | inactive | inactive | inconclusive: 0.0019 µM [rising, full curve, poor fit] | – | inconclusive: 16.6 µM [cytotoxic, partial curve, poor fit] | inconclusive: 0.0026 µM [rising, full curve, poor fit] | inconclusive: 0.166 µM [rising, full curve, poor fit] | inactive | inactive | inconclusive: 37.2 µM [cytotoxic, partial curve, poor fit] | – | inactive | inconclusive: 18.7 µM [cytotoxic, partial curve, poor fit] | – | – |
| O=c1c(-c2ccc(O)cc2)coc2cc(O)cc(O)c12 | inconclusive: 37.2 µM [cytotoxic, single point] | inactive | inactive | – | inconclusive: 0.0105 µM [cytotoxic, full curve, poor fit] | active: 14.8 µM | – | inconclusive: 33.2 µM [cytotoxic, single point] | inconclusive: 0.0148 µM [cytotoxic, full curve, poor fit] | inactive | – | inactive | inconclusive: 37.2 µM [cytotoxic, single point] | inconclusive: 0.935 µM [cytotoxic, full curve, poor fit] | – | inconclusive: 9.35 µM [cytotoxic, partial curve, poor fit] | inconclusive: 2.96 µM [cytotoxic, full curve, poor fit] | – | inconclusive: 103% [cytotoxic] |
| CCN1CCC(n2cc(CNc3cc(Cl)c4ncc(C#N)c(Nc5ccc(F)c(Cl)c5)c4c3)nn2)CC1 | inconclusive: 16.6 µM [cytotoxic, partial curve, poor fit] | – | active: 10.5 µM | – | inconclusive: 11.8 µM [cytotoxic, partial curve] | – | – | inactive | inconclusive: 6.62 µM [cytotoxic, partial curve, poor fit] | active: 16.6 µM | – | inconclusive: 10.5 µM [cytotoxic, partial curve] | – | – | inconclusive: 3.77 µM [activator, full curve, poor fit] | active: 20.9 µM | inconclusive: 5.26 µM [cytotoxic, partial curve, poor fit] | – | – |
| O=c1c(-c2ccc(O)cc2)coc2cc(O)ccc12 | inactive | inconclusive: 0.743 µM [cytotoxic, full curve, poor fit] | inactive | – | inconclusive: 10.5 µM [cytotoxic, single point] | inactive | inconclusive: 0.0047 µM [cytotoxic, full curve, poor fit] | inactive | – | inconclusive: 11.8 µM [rising, single point] | inconclusive: 0.469 µM [cytotoxic, partial curve, poor fit] | inactive | inactive | inactive | – | inactive | – | – | – |
| CS(=O)c1ccc(-c2nc(-c3ccc(F)cc3)c(-c3ccncc3)[nH]2)cc1 (stereo not given) | inconclusive: 67.9 µM [cytotoxic, single point] | – | – | active: 30.3 µM | inconclusive: 48.1 µM [cytotoxic, partial curve, poor fit] | – | – | – | – | inconclusive: 8.55 µM [cytotoxic, full curve, poor fit] | active: 2.15 µM | active: 48.1 µM | – | active: 34 µM | inactive | – | – | inconclusive: 34 µM [cytotoxic, partial curve] | – |
| O=c1c(O)c(-c2ccc(O)cc2)oc2cc(O)cc(O)c12 | inactive | active: 20.9 µM | inconclusive: 29.6 µM [cytotoxic, partial curve, poor fit] | – | inconclusive: 1.66 µM [rising, full curve, poor fit] | active: 13.2 µM | – | – | active: 16.6 µM | inconclusive: 6.62 µM [rising, partial curve] | inconclusive: 33.2 µM [cytotoxic, single point] | – | – | inconclusive: 16.6 µM [cytotoxic, partial curve, poor fit] | – | – | inconclusive: 14.8 µM [cytotoxic, partial curve, poor fit] | inconclusive: 37.2 µM [cytotoxic, single point] | – |

Reformatted: results already given
Compound	Potency [1]	Potency [2]	Potency [3]	Potency [4]	Potency [5]	Potency [6]	Potency [7]	Potency [8]	Potency [9]	Potency [10]	Potency [11]	Potency [12]	Potency [13]	Potency [14]	Potency [15]	Potency [16]	Potency [17]	Potency [18]	viability, % of DMSO [11]
CCN1CCC(n2cc(CNc3cc(Cl)c4ncc(C#N)c(Nc5ccc(F)c(Cl)c5)c4c3)nn2)CC1	inconclusive: 16.6 µM [cytotoxic, partial curve, poor fit]	–	active: 10.5 µM	–	inconclusive: 11.8 µM [cytotoxic, partial curve]	–	–	inactive	inconclusive: 6.62 µM [cytotoxic, partial curve, poor fit]	active: 16.6 µM	–	inconclusive: 10.5 µM [cytotoxic, partial curve]	–	–	inconclusive: 3.77 µM [activator, full curve, poor fit]	active: 20.9 µM	inconclusive: 5.26 µM [cytotoxic, partial curve, poor fit]	–	–
O=c1c(-c2ccc(O)cc2)coc2cc(O)ccc12	inactive	inconclusive: 0.743 µM [cytotoxic, full curve, poor fit]	inactive	–	inconclusive: 10.5 µM [cytotoxic, single point]	inactive	inconclusive: 0.0047 µM [cytotoxic, full curve, poor fit]	inactive	–	inconclusive: 11.8 µM [rising, single point]	inconclusive: 0.469 µM [cytotoxic, partial curve, poor fit]	inactive	inactive	inactive	–	inactive	–	–	–
